# Experimental data published in PubChem BioAssay AID504444 (National Center for Advancing Translational Sciences (NCATS), 2011).
# About 7,500 (2.1%) of roughly 360,000 compounds were called active. The shares of active, inactive and inconclusive entries below differ from those in the screen. Calls follow the shape of the dose curve; as a rule, active = well fitted inhibition curve with a large enough effect; inconclusive = small, poorly fitted or top-dose-only effect, or effect the other way; inactive = flat fitted curve, though single readings scatter. Potencies of inconclusive entries are doubtful fits and often do not repeat.
# Assay: Nrf2 qHTS screen for inhibitors; also: nearly all actives have a fitted effect of over 60% in size
# Conditions: A549 ARE-Fluc reporter, luciferase luminescence, 18-24 h; series mostly up to 46 µM
# In short: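 Two sequential reads on A549 ARE_Fluc cells exposed to compound for 18-24 h: a CellTiter-Fluor fluorescence read for viability, then a luciferase luminescence read for Nrf2/ARE activity.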
# Potency is read from the fitted curve at half-maximal effect.
row,Compound,Potency
1,CCOC(=O)c1c(C)oc2ncnc(Nc3ccc(F)cc3Cl)c12,"inconclusive: 29.1 µM [activator, single point]"
2,Cc1cc(C)c(S(=O)(=O)NCc2ccncc2)c(C)c1,"inconclusive: 1.16 µM [falling, full curve]"
3,O=C(/C=C/c1ccc(Cl)c(Cl)c1)NC1=NCCS1,"inconclusive: 2.59 µM [activator, full curve]"
4,CCC(C)N(C(=O)c1csnn1)C(C(=O)NC(C)(C)C)c1ccccc1 (stereo not drawn),"inconclusive: 18.4 µM [activator, partial curve]"
5,O=c1oc2ccccc2c(O)c1/C=N/c1ccccn1,"inconclusive: 29.1 µM [falling, single point]"
6,Fc1ccc2nc3n(c2c1F)CCCCCC3,"inconclusive: 7.31 µM [falling, partial curve, poor fit]"
7,COc1ccc(C(=O)C2CCCN(C(=O)c3c4c(nn3C)CCCC4)C2)cc1F (stereo not drawn),"inconclusive: 13 µM [falling, partial curve, poor fit]"
8,CCOC(=O)/C(=C\C=C\c1ccccc1)NC(=O)c1ccccc1,active: 9.2 µM
9,CCOc1ccc(NC(=O)C2CCCN(c3c(CC)c(C)nc4ncnn34)C2)cc1 (stereo not drawn),active: 10.3 µM
10,COC(=O)c1cc(C(=O)N2CCOCC2)cc([N+](=O)[O-])c1,inactive
11,CC(=O)c1ccc(NC(=S)NC(=O)/C=C/c2ccco2)cc1,"inconclusive: 16.4 µM [activator, single point]"
12,COc1cccc(C(=O)N(Cc2ccco2)Cc2cc3cccc(C)c3[nH]c2=O)c1,"inconclusive: 20.6 µM [falling, single point]"
13,NC(=NCCc1c[nH]c2ccccc12)NS(=O)(=O)c1cc(F)ccc1F,"inconclusive: 23.1 µM [falling, partial curve, poor fit]"
14,CCN(CC)CCN1C(=O)C(=O)/C(=C(/O)c2ccc(S(=O)(=O)N3CCOCC3)cc2)C1c1ccc(C)cc1 (stereo not drawn),inactive
15,OC(CC(O)c1ccccc1)c1ccccc1 (stereo not drawn),"inconclusive: 25.9 µM [activator, single point]"
16,COc1ccc(C(=O)OCC(=O)NC2CC2)cc1S(=O)(=O)N(C)Cc1ccccc1,"inconclusive: 5.17 µM [activator, partial curve, poor fit]"
17,Cn1c(SCC(=O)Nc2ccccc2C(F)(F)F)nc2c(c1=O)SCC2,"inconclusive: 16.4 µM [falling, single point]"
18,O=[N+]([O-])c1ccccc1-n1cnc2ccccc21,"inconclusive: 1.64 µM [activator, partial curve, poor fit]"

# Look-ups from above:
# In Potency, `COC(=O)c1cc(C(=O)N2CCOCC2)cc([N+](=O)[O-])c1` is listed with inactive
# In Potency, `O=[N+]([O-])c1ccccc1-n1cnc2ccccc21` is listed with inconclusive: 1.64 µM [activator, partial curve, poor fit]
